The chains behind the UniProt entries cited, without tags or fusion partners.
UniProt O15105: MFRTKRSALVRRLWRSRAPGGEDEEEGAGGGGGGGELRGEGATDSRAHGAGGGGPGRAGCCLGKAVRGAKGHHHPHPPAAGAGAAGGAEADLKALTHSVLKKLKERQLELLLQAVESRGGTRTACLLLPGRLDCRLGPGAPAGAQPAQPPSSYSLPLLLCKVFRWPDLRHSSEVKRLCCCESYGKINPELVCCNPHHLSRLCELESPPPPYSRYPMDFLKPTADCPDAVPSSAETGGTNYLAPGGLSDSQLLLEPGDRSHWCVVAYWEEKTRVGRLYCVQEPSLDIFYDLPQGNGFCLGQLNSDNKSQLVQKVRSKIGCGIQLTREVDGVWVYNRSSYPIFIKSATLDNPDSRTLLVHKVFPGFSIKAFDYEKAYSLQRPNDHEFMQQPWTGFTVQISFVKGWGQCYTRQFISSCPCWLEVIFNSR
UniProt P84022: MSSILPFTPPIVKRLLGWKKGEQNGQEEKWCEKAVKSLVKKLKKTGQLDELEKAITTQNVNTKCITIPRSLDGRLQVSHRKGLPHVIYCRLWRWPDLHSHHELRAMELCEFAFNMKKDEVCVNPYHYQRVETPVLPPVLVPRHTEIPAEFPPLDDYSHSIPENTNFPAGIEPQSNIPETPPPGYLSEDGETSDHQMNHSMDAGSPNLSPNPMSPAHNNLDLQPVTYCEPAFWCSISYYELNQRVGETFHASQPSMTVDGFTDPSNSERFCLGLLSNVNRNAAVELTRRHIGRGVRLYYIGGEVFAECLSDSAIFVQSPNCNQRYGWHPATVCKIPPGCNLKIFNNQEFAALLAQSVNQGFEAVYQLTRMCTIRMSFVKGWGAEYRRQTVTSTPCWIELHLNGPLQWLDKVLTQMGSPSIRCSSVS
UniProt Q15797: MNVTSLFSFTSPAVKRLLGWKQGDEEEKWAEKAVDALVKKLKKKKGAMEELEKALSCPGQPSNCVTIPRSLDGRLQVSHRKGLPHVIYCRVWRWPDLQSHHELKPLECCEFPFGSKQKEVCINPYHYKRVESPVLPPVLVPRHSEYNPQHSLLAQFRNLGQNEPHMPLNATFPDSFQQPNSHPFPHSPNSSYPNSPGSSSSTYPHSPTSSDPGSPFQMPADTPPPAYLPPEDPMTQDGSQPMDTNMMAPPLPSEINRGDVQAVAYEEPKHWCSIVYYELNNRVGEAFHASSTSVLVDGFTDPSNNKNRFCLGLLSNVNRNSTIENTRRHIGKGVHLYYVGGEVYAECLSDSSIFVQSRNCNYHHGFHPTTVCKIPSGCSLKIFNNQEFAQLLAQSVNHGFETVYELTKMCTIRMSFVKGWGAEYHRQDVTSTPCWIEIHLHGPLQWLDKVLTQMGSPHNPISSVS
UniProt Q99717: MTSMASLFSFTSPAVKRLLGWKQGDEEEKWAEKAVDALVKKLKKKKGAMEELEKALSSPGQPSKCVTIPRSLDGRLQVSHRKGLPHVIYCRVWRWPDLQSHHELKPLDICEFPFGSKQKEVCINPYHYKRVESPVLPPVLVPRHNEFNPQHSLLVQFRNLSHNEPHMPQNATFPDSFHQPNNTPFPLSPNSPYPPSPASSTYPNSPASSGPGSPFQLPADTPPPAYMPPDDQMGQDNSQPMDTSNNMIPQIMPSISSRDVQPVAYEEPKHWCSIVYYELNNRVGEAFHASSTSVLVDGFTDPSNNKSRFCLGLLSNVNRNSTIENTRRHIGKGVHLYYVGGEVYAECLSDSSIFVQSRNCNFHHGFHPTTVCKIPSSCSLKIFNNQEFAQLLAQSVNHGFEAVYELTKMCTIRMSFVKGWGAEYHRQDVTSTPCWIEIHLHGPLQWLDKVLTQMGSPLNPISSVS
UniProt Q15796: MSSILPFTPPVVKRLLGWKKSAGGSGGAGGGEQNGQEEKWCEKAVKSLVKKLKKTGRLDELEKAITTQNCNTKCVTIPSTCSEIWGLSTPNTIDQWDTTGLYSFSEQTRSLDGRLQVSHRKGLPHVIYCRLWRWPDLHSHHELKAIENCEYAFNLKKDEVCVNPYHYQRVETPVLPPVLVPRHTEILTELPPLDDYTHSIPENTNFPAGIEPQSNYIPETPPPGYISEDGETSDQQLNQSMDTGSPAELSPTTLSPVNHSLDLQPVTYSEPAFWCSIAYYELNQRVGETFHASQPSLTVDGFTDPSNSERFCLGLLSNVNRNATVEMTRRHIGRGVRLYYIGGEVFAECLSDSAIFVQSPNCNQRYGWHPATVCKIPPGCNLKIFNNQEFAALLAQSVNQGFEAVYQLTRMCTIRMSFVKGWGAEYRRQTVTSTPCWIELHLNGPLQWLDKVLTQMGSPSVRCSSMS
UniProt Q13485: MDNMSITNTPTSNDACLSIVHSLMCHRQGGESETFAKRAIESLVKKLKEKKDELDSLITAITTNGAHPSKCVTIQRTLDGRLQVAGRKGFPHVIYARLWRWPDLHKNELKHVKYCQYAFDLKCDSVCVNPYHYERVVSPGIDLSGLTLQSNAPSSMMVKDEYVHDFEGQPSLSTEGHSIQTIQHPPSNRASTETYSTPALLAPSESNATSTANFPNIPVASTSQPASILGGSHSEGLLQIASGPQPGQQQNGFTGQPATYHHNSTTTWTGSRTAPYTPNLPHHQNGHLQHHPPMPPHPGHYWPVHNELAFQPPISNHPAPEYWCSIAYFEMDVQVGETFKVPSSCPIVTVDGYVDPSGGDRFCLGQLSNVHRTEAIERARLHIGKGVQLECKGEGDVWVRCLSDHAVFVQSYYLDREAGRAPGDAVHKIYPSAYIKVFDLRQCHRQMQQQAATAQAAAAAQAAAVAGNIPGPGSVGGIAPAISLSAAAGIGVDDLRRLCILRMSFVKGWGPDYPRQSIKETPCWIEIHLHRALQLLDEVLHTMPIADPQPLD
UniProt P51784: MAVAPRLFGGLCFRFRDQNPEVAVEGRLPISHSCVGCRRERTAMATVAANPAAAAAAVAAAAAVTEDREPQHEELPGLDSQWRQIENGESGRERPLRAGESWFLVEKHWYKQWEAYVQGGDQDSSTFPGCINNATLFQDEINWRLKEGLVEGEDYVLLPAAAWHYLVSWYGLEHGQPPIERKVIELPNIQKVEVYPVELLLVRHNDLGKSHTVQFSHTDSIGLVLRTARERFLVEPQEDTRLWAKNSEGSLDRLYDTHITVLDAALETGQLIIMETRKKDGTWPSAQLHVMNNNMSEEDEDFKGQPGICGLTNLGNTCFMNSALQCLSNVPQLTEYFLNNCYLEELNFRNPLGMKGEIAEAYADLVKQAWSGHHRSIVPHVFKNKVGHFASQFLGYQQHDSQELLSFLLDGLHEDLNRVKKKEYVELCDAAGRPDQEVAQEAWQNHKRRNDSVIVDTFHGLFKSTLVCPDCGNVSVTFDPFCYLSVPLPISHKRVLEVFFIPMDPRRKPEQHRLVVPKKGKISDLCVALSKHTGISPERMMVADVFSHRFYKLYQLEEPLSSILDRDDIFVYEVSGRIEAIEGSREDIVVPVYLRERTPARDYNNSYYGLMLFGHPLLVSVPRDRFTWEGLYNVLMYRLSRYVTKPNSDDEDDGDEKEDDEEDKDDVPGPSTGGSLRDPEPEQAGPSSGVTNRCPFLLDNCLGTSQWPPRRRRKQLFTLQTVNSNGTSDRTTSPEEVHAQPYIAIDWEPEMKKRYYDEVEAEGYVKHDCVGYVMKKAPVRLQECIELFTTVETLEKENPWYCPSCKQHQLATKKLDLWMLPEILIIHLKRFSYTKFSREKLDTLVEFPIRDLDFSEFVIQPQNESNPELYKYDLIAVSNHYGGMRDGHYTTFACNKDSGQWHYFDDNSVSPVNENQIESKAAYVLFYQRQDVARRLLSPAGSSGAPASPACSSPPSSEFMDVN
UniProt Q9HCE7: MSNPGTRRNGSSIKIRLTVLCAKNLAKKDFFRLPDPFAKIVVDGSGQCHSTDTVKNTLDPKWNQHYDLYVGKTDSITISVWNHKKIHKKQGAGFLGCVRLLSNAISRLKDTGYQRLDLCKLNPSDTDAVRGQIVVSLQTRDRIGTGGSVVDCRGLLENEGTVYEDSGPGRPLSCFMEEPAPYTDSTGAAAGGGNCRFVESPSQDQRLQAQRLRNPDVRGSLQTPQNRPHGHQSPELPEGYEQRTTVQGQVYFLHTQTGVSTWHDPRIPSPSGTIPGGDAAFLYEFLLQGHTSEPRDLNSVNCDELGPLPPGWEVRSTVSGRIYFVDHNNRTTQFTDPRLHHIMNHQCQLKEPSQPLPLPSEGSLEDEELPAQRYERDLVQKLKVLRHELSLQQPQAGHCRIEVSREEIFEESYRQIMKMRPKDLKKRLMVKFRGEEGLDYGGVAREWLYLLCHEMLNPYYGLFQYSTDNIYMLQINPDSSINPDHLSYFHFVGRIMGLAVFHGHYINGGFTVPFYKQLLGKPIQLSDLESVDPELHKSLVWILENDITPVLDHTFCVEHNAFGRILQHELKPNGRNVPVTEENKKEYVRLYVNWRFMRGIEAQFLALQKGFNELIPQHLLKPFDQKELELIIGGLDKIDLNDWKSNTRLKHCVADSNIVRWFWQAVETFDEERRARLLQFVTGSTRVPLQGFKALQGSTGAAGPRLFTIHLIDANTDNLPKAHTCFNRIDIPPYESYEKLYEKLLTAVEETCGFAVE
UniProt Q9HAU4: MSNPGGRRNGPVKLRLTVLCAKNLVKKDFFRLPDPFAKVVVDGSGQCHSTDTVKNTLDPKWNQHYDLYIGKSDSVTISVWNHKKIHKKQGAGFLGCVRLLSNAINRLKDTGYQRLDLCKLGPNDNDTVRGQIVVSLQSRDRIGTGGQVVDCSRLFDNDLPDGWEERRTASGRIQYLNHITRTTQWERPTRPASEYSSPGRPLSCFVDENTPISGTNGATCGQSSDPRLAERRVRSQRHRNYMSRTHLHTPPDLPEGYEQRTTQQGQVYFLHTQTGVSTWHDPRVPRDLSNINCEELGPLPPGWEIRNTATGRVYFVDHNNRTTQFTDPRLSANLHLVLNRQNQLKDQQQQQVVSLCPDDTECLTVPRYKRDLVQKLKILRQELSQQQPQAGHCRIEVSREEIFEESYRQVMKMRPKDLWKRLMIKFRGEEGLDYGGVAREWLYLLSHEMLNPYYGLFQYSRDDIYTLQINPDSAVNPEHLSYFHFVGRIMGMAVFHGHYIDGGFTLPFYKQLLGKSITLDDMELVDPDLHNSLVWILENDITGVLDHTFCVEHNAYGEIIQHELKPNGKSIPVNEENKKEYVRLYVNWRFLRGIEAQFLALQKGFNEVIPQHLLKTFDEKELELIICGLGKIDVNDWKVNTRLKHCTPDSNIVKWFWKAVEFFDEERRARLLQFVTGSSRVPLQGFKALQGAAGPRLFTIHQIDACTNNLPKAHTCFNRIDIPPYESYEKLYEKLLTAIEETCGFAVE
UniProt Q93009: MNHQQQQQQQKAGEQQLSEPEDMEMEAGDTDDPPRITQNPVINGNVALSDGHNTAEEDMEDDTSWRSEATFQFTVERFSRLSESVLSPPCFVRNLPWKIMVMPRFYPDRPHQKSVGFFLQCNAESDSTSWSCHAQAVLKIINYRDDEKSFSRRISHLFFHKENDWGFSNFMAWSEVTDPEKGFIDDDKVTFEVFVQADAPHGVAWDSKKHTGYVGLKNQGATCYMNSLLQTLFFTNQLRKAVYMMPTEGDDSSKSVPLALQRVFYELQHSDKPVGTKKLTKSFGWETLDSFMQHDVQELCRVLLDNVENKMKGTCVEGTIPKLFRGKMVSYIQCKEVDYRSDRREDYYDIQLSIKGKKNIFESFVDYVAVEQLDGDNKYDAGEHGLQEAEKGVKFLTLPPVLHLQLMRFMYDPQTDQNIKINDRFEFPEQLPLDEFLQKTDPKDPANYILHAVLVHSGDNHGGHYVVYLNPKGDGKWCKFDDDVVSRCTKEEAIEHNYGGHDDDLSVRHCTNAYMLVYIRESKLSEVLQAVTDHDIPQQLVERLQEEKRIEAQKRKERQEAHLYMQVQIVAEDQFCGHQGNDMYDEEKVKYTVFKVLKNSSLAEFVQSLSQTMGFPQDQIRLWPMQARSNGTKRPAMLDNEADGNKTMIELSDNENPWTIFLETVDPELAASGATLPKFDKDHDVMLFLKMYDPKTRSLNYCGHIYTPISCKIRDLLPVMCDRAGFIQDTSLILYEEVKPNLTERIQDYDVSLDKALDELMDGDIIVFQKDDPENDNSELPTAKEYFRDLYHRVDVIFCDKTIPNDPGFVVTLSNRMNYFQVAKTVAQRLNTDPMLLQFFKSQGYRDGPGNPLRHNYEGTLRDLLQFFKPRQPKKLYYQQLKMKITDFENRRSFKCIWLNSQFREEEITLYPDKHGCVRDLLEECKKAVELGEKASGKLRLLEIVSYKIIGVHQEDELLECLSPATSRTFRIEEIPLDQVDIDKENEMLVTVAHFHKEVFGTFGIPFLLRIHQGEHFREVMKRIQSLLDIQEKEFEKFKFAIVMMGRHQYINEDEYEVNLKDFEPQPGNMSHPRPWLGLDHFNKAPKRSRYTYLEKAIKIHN

In paper PMC3390794:

Columns and labels:
Assay in all cases: affinity purification with mass spectrometry; anti-GFP IPs from extracts of HEK293 cells expressing GFP-SMAD7 (GFP alone as control; similar assays with GFP-tagged SMADs1–5); SDS–PAGE, gel pieces digested with trypsin, LC–MS–MS
GFP-SMAD7 (human) = GFP-SMAD7 (human) (UniProt O15105)
GFP-tagged SMAD3 (human) = GFP-tagged SMAD3 (human) (UniProt P84022)
GFP-tagged SMAD1 (human) = GFP-tagged SMAD1 (human) (UniProt Q15797)
GFP-tagged SMAD5 = GFP-tagged SMAD5 (UniProt Q99717)
GFP-tagged SMAD2 (human) = GFP-tagged SMAD2 (human) (UniProt Q15796)
GFP-tagged SMAD4 (human) = GFP-tagged SMAD4 (human) (UniProt Q13485)

Row | binding (GFP-SMAD7 (human)) | binding (GFP-tagged SMAD3 (human)) | binding (GFP-tagged SMAD1 (human)) | binding (GFP-tagged SMAD5) | binding (GFP-tagged SMAD2 (human)) | binding (GFP-tagged SMAD4 (human)) | Molecule
1 | binds | no binding | no binding | no binding | no binding | no binding | endogenous USP11 (from UniProt P51784 1-963) (enzyme)
2 | binds |  |  |  |  |  | SMURF1 (from UniProt Q9HCE7 1-757) (enzyme)
3 | binds | no binding | no binding | no binding | no binding | no binding | USP15 (enzyme, UniProt Q9Y4E8 1-981) MAEGGAADLDTQRSDIATLLKTSLRKGDTWYLVDSRWFKQWKKYVGFDSWDKYQMGDQNVYPGPIDNSGLLKDGDAQSLKEHLIDELDYILLPTEGWNKLVSWYTLMEGQEPIARKVVEQGMFVKHCKVEVYLTELKLCENGNMNNVVTRRFSKADTIDTIEKEIRKIFSIPDEKETRLWNKYMSNTFEPLNKPDSTIQDAGLYQGQVLVIEQKNEDGTWPRGPSTPKSPGASNFSTLPKISPSSLSNNYNNMNNRNVKNSNYCLPSYTAYKNYDYSEPGRNNEQPGLCGLSNLGNTCFMNSAIQCLSNTPPLTEYFLNDKYQEELNFDNPLGMRGEIAKSYAELIKQMWSGKFSYVTPRAFKTQVGRFAPQFSGYQQQDCQELLAFLLDGLHEDLNRIRKKPYIQLKDADGRPDKVVAEEAWENHLKRNDSIIVDIFHGLFKSTLVCPECAKISVTFDPFCYLTLPLPMKKERTLEVYLVRMDPLTKPMQYKVVVPKIGNILDLCTALSALSGIPADKMIVTDIYNHRFHRIFAMDENLSSIMERDDIYVFEININRTEDTEHVIIPVCLREKFRHSSYTHHTGSSLFGQPFLMAVPRNNTEDKLYNLLLLRMCRYVKISTETEETEGSLHCCKDQNINGNGPNGIHEEGSPSEMETDEPDDESSQDQELPSENENSQSEDSVGGDNDSENGLCTEDTCKGQLTGHKKRLFTFQFNNLGNTDINYIKDDTRHIRFDDRQLRLDERSFLALDWDPDLKKRYFDENAAEDFEKHESVEYKPPKKPFVKLKDCIELFTTKEKLGAEDPWYCPNCKEHQQATKKLDLWSLPPVLVVHLKRFSYSRYMRDKLDTLVDFPINDLDMSEFLINPNAGPCRYNLIAVSNHYGGMGGGHYTAFAKNKDDGKWYYFDDSSVSTASEDQIVSKAAYVLFYQRQDTFSGTGFFPLDRETKGASAATGIPLESDEDSNDNDNDIENENCMHTN

Continued, molecule first:

Row | Molecule | binding (GFP-SMAD7 (human)) | binding (GFP-tagged SMAD3 (human)) | binding (GFP-tagged SMAD1 (human)) | binding (GFP-tagged SMAD5) | binding (GFP-tagged SMAD2 (human)) | binding (GFP-tagged SMAD4 (human))
4 | NEDD4 (from UniProt P46934 1-1319) (enzyme) | binds |  |  |  |  | 
5 | SMURF2 (from UniProt Q9HAU4 1-748) (enzyme) | binds |  |  |  |  | 
6 | USP5 (from UniProt P45974 1-858) (enzyme) | no binding |  |  |  |  | 
7 | USP9X (from UniProt Q93008 1-2554) (enzyme) | no binding |  |  |  |  | 
8 | USP7 (from UniProt Q93009 1-1102) (enzyme) | no binding |  |  |  |  | 

These are yes or no findings as the source states them, for the method shown. In cells and extracts the contact can be indirect. A yes stands for co-enrichment or nearness to the bait. Other partners may have been found. A no says only that the protein was not detected with the bait.
